Series [1] can be described thus: general procedure: Boc solid-phase peptide synthesis; Boc-Pro-O-Resin (chloromethyl-polystyrene/1% DVB); DCC/HBT. Conditions: whole synthesis, scale 1.4 mmol (half of resin carried on), acetic acid addition salt.
The nature of series [2]: general procedure: Boc solid-phase peptide synthesis; benzhydrylamino-polystyrene-divinylbenzene resin; DCC/HBT. As to conditions: whole synthesis, scale 0.8 mmol, HF salt.

These results are taken from patent publication US4234571 (dated 1980).

For the substance “pyroglutamyl-histidyl-tryptophyl-seryl-tyrosyl-3-(2-naphthyl)-D-alanyl-leucyl-arginyl-proline ethylamide”, in series [1], the crude mass was found to be 1.39 g.

For “(pyro)-Glu-His-Trp-Ser-Tyr-3-(2-naphthyl)-D-alanyl-Leu-Arg-Pro-Gly-NH2”, in series [2], the crude mass was 0.8 g.
